Measured values reported in patent US4656250A (Toyo Jozo Kabushiki Kaisha, priority 1983, dated 1987).
Non-standard residues stand in square brackets, D forms with d. *: point of attachment. Tos = Cc1ccc(S(=O)(=O)*)cc1; ClZ = O=C(OCc1ccccc1Cl)*; Nle = CCCC[C@H](N)C(=O)O; Boc = CC(C)(C)OC(=O)*; OBn = c1ccc(CO*)cc1; Bn = c1ccc(C*)cc1

Assay: general procedure: solution-phase peptide synthesis; WSC/HOBt
Conditions: coupling step

Row | Substance | step yield
1 | Boc-Asp(OBzl)-Val-His-Asn-Tyr(Bzl-Cl2)-NH2 | 89.8%
2 | Boc-Gln-Asp(OBzl)-Val-His-Asn-Tyr(Bzl-Cl2)-NH2 | 94.5%
3 | Boc-Glu(OBzl)-Arg(Tos)-Val-Glu(OBzl)-OPAC | 76.7%
4 | Boc-Glu(OBzl)-Ile-Gln-Leu-OPAC | 97.1%
5 | Boc-HNLG-OBn | 74.8%
6 | Boc-His(Tos)-Leu-Asn-Ser(Bzl)-OPAC | 85.1%
7 | Boc-LR(Tos)K(ClZ)K(ClZ)L-OEt | 90.5%
8 | Boc-Lys(Z-Cl)-His-Leu-Asn-Ser(Bzl)-OPAC | 9.18%
9 | Boc-Nle-Glu(OBzl)-Arg(Tos)-Val-Glu(OBzl)-OPAC | 78%
10 | Boc-Ser(Bzl)-Glu(OBzl)-Ile-Gln-Leu-OPAC | 94.7%
11 | Boc-Ser(Bzl)-Val-Ser(Bzl)-Glu(OBzl)-Ile-Gln-Leu-OPAC | 92.3%
12 | Boc-Trp-Leu-Arg(Tos)-Lys(Z-CI)-Lys(Z-Cl)-Leu-Gln-Asp(OBzl)-Val-His-Asn-Tyr (Bzl-Cl2)-NH2 | 99.1%
13 | Boc-Val-His-Asn-Tyr(Bzl-Cl2)-NH2 | 103.2%
14 | Boc-Val-Ser(Bzl)-Glu(OBzl)-Ile-Gln-Leu-OPAC | 96.8%
15 | Boc-WLR(Tos)K(ClZ)K(ClZ)L-OEt | 81.2%
16 | Boc-[Nle]HNLG-OBn | 42.9%

Same assay, conditions: late stage modification step

Row | Substance | step yield
17 | Boc-Lys(Z-CL)-His-Leu-Asn-Ser(Bzl)-OH | 95.2%
18 | Boc-S(Bn)VS(Bn)E(OBn)IQL-OH | 97.4%
19 | Boc-WLR(Tos)K(ClZ)K(ClZ)L-OH | 101.1%
20 | Boc-[Nle]HNLG-OH | 71.1%
